Results on 8 sequences are retold here after article PMC10189802.

Assay in all cases: EMSA
The subject of data set [1] is MBP-SlWRKY30 (Solanum lycopersicum). The settings on record: recombinant protein; protein details: N-terminal MBP (pMAL-c4X).
The subject of data set [2] is MBP-SlWRKY30 + MBP-SlWRKY81. The settings on record: recombinant protein.
For data set [3], the target named is T1, MBP-SlWRKY81 (Solanum lycopersicum) (UniProt A0A3Q7I1L3).
T1 sequence (looked up, limits assumed): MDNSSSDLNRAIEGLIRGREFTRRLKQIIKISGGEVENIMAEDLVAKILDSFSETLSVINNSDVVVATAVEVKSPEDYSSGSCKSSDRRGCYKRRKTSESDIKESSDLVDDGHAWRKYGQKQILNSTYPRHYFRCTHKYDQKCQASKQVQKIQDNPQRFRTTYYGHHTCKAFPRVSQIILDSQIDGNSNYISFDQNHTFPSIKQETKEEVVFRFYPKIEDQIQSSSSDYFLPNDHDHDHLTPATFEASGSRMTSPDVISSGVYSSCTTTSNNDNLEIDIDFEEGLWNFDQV
Conditions: recombinant protein; protein details: N-terminal MBP (pMAL-c4X).

The exact form of at least one protein or probe is not confirmed. For some assays here: Tags and fusion partners may be left off the protein sequences shown.

For “ACTGACGACTGAAACATATTAAAGAAACAGATCCAACGCAGTCAACTGAC (double strand) [SlPR-STH2a probe 1 WT]”, the binding result in data set [1], in data set [2] and in data set [3] was “binds” in each case.
As for “CTAGTTTCATTCTCAAACTATTGACAGCCCTAAAAACACCCTTTTACT (double strand) [SlPR-STH2b probe 1 WT]”, the binding result in data set [1], in data set [2] and in data set [3] was “binds” throughout.
For the sequence “TTTGATAACGTGACCGAGTTACAATTGGCCACGTGTCAAAAA (double strand) [SlPR-STH2c probe 1 WT]”, the binding result in data set [1], in data set [2] and in data set [3] was “binds” in each case.
Regarding “TAGTTTCGACTCTAACTATGGATCCTGACACGGTTTAACTTATTC (double strand) [SlPR-STH2d probe 1 WT]”, the binding result in data set [1], in data set [2] and in data set [3] was “binds” throughout.
In the case of “GATCGAATTATAATTGGTCACGTCATCATTTTTCAATAAA (double strand) [SlPR-STH2c probe 2 WT]”, the binding result in data set [1] and in data set [3] was “binds” throughout.
“TTTACATGATATAGTTAGACTTGACATAAAATTTAAGAAA (double strand) [SlPR-STH2b probe 2 WT]”: the binding result in data set [1] and in data set [3] was “binds” throughout.
As for “ATCGATTGACATCTGTTCTCCCATATTTAATTCGTCATTGAGGTTTGCTT (double strand) [SlPR-STH2a probe 2 WT]”, the binding result in data set [1] and in data set [3] was “binds” throughout.
“CATGTTTAGTTGACTTATATGTTTTCTAAATAGATTTATT (double strand) [SlPR-STH2d probe 2 WT]”: the binding result in data set [1] and in data set [3] was “binds” in each case.
